No constants are given. Whether binding was seen depends on the method and setting. For some assays here: Binding seen in cells or lysates may run through a third protein. Some results given as binding are weak or reduced against the parent protein; the word gives no strength. For some assays here: Tags and fused reporters may be left off the sequences shown.
Assays:
[1] = biological target: PRMT1 of Jurkat cell lysates (human) (UniProt Q99873); assay: GST pull-down of Jurkat cell lysates, immunoblot with a monoclonal PRMT1 antibody
HA-tagged NFATc2 [2] = biological target: T1, HA-tagged NFATc2; assay: pull-down of HA-NFATc2-transfected Jurkat cell lysates with recombinant protein; full-length NIP45 is the reference
T1 sequence: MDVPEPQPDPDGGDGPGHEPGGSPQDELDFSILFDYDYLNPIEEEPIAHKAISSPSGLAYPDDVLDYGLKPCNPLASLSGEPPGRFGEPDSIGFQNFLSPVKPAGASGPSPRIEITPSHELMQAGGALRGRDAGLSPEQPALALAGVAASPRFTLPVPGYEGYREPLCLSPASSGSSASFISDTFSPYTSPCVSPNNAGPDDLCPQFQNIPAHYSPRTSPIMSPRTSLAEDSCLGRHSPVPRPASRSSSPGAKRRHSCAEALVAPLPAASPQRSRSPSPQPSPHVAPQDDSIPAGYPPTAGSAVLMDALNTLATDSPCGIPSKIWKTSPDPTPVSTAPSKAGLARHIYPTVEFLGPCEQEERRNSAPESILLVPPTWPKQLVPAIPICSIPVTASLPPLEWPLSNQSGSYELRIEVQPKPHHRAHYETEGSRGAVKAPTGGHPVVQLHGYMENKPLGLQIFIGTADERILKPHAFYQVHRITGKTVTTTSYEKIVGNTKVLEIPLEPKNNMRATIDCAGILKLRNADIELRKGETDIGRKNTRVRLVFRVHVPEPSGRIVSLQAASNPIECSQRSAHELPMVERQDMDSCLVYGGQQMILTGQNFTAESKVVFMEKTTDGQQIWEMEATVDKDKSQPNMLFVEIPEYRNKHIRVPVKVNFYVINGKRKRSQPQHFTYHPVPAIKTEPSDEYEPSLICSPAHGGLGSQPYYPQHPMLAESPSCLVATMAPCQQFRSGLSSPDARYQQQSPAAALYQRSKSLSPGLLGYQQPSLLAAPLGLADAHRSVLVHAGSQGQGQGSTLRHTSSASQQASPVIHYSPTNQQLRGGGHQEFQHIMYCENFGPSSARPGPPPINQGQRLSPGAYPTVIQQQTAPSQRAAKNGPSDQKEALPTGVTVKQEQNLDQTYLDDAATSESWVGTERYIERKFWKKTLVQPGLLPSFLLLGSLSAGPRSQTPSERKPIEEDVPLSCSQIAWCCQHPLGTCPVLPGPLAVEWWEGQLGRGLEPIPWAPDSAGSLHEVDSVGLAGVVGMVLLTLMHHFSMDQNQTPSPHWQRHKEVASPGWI

The chains behind the UniProt entries cited, without tags or fusion partners. Where a name states a change or a piece, a line headed by the entry shows the natural chain unless it says otherwise.
UniProt Q99873: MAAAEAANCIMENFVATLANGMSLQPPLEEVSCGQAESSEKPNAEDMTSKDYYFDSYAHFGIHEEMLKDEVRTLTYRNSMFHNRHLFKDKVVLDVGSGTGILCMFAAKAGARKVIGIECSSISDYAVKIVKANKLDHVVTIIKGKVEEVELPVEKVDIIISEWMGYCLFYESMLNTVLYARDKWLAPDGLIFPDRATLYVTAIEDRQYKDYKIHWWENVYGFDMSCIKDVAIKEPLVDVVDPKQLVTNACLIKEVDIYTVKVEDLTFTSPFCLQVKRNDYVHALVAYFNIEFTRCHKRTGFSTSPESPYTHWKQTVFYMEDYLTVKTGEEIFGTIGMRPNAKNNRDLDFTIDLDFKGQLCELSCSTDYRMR
UniProt Q9JIF0: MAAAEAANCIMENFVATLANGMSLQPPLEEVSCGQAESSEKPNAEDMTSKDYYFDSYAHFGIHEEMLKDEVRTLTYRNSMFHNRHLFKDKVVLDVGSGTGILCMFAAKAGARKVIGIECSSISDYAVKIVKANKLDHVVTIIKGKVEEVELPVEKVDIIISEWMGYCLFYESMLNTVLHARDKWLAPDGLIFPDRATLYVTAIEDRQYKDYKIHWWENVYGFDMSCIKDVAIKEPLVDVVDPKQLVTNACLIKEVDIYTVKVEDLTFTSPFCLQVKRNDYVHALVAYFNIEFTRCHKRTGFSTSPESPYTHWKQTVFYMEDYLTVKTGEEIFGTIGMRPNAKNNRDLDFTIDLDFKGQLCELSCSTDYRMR

[3] = biological target: T2, NFATc2 (form of the construct not stated); assay: association assay not described; ternary complex
T2 sequence: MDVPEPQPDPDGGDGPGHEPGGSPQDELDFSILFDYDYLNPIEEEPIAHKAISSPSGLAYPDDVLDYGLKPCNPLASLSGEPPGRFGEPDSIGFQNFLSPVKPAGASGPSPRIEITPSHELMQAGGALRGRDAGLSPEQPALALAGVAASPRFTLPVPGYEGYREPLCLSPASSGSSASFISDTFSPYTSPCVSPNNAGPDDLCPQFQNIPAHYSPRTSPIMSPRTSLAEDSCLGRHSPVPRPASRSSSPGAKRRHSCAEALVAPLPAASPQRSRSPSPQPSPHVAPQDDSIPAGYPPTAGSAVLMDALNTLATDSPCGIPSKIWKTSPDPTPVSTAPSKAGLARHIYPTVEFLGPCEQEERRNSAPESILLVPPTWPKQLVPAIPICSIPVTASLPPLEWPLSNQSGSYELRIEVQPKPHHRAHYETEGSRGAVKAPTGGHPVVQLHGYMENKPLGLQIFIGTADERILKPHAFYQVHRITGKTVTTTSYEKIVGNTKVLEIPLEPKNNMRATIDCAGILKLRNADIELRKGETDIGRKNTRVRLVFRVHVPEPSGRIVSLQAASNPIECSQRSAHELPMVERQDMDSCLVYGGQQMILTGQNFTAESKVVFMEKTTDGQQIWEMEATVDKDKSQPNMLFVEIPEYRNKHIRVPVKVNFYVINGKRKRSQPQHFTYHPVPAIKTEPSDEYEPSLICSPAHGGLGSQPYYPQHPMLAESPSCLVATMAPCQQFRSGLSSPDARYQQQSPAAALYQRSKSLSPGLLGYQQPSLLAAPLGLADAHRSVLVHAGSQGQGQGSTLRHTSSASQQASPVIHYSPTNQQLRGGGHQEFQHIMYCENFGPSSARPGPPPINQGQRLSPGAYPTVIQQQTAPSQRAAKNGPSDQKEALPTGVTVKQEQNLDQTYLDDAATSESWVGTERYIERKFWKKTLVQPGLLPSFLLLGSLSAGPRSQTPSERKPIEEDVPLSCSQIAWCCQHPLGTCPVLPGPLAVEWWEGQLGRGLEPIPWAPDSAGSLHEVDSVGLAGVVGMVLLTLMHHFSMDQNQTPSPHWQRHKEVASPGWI

[4] = biological target: PRMT1 (form of the construct not stated) (murine) (UniProt Q9JIF0); assay: association assay not described; ternary complex
HA-tagged NFATc2 [5] = biological target: T1, HA-tagged NFATc2; assay: co-immunoprecipitation with anti-Myc agarose from transfected 293T cells left untreated or treated with 1 mM MTA, anti-HA immunoblot
HA-tagged NFATc2 [6] = biological target: T1, HA-tagged NFATc2; assay: co-immunoprecipitation with anti-Myc agarose from transfected 293 cells left untreated or treated with 1 mM MTA, anti-HA immunoblot
[7] = biological target: T3, endogenous NFATp of HepG2 cells (UniProt Q13469); assay: co-immunoprecipitation with anti-NFATp antibody from HepG2 cells transfected with NIP45-HA only, anti-HA Western blot
T3 sequence (looked up): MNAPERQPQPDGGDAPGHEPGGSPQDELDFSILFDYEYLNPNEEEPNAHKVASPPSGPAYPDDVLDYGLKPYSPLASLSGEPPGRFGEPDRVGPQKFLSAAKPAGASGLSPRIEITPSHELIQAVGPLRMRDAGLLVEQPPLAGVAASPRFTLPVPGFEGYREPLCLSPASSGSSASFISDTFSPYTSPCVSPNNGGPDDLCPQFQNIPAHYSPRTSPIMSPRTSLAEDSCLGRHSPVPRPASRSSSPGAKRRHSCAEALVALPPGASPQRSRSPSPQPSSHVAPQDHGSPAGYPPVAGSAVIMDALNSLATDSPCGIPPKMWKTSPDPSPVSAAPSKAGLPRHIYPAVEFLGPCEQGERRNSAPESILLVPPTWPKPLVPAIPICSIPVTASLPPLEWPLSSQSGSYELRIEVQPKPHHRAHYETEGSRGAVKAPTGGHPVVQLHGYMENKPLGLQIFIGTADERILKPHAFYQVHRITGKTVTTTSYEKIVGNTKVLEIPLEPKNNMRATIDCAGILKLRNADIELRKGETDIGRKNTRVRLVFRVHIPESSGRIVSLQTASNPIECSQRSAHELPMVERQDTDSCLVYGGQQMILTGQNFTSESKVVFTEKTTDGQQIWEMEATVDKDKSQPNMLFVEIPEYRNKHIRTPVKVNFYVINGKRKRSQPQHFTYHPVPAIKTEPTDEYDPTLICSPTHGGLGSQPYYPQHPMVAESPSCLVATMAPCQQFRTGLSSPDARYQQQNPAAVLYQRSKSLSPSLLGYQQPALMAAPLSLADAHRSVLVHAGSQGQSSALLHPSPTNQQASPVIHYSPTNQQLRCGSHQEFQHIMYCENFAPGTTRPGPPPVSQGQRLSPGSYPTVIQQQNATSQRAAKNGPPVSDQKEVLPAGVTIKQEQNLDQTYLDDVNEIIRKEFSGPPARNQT

HA-tagged PRMT1 (murine) = HA-tagged PRMT1 (murine) (UniProt Q9JIF0); assay: co-immunoprecipitation with anti-Flag agarose from transfected 293T cells, anti-HA immunoblot

B1: GST-NIP45 fusion protein (bacterially expressed, full length NIP45) (protein, not shown: a dimerising Fc or GST)
chain: MAEPLRGRGPRSRGGRGARRARGARGRCPRARQSPARLIPDTVLVDLVSDSDEEVLEVADPVEVPVARLPAPAKPEQDSDSDSEGAAEGPAGAPRTLVRRRRRRLLDPGEAPVVPVYSGKVQSSLNLIPDNSSLLKLCPSEPEDEADLTNSGSSPSEDDALPSGSPWRKKLRKKCEKEEKKMEEFPDQDISPLPQPSSRNKSRKHTEALQKLREVNKRLQDLRSCLSPKQHQSPALQSTDDEVVLVEGPVLPQSSRLFTLKIRCRADLVRLPVRMSEPLQNVVDHMANHLGVSPNRILLLFGESELSPTATPSTLKLGVADIIDCVVLASSSEATETSQELRLRVQGKEKHQMLEISLSPDSPLKVLMSHYEEAMGLSGHKLSFFFDGTKLSGKELPADLGLESGDLIEVWG
binding [1]: binds
binding (HA-tagged NFATc2 [2]): binds

B2: NIP45 expressed from a NIP45 expression plasmid (protein)
chain: MAEPLRGRGPRSRGGRGARRARGARGRCPRARQSPARLIPDTVLVDLVSDSDEEVLEVADPVEVPVARLPAPAKPEQDSDSDSEGAAEGPAGAPRTLVRRRRRRLLDPGEAPVVPVYSGKVQSSLNLIPDNSSLLKLCPSEPEDEADLTNSGSSPSEDDALPSGSPWRKKLRKKCEKEEKKMEEFPDQDISPLPQPSSRNKSRKHTEALQKLREVNKRLQDLRSCLSPKQHQSPALQSTDDEVVLVEGPVLPQSSRLFTLKIRCRADLVRLPVRMSEPLQNVVDHMANHLGVSPNRILLLFGESELSPTATPSTLKLGVADIIDCVVLASSSEATETSQELRLRVQGKEKHQMLEISLSPDSPLKVLMSHYEEAMGLSGHKLSFFFDGTKLSGKELPADLGLESGDLIEVWG
binding [3]: binds
binding [4]: binds

B3: cMyc-tagged NIP45 (NIP45-MycHis) (protein, not shown: small tags and cut ends)
chain: MAEPLRGRGPRSRGGRGARRARGARGRCPRARQSPARLIPDTVLVDLVSDSDEEVLEVADPVEVPVARLPAPAKPEQDSDSDSEGAAEGPAGAPRTLVRRRRRRLLDPGEAPVVPVYSGKVQSSLNLIPDNSSLLKLCPSEPEDEADLTNSGSSPSEDDALPSGSPWRKKLRKKCEKEEKKMEEFPDQDISPLPQPSSRNKSRKHTEALQKLREVNKRLQDLRSCLSPKQHQSPALQSTDDEVVLVEGPVLPQSSRLFTLKIRCRADLVRLPVRMSEPLQNVVDHMANHLGVSPNRILLLFGESELSPTATPSTLKLGVADIIDCVVLASSSEATETSQELRLRVQGKEKHQMLEISLSPDSPLKVLMSHYEEAMGLSGHKLSFFFDGTKLSGKELPADLGLESGDLIEVWG
binding (HA-tagged NFATc2 [5]): binds
binding (HA-tagged NFATc2 [6]): binds

B4: HA-tagged NIP45 polypeptide (expression vector NIP45-HA, pCEP4-HA) (protein, not shown: small tags and cut ends)
chain: MAEPLRGRGPRSRGGRGARRARGARGRCPRARQSPARLIPDTVLVDLVSDSDEEVLEVADPVEVPVARLPAPAKPEQDSDSDSEGAAEGPAGAPRTLVRRRRRRLLDPGEAPVVPVYSGKVQSSLNLIPDNSSLLKLCPSEPEDEADLTNSGSSPSEDDALPSGSPWRKKLRKKCEKEEKKMEEFPDQDISPLPQPSSRNKSRKHTEALQKLREVNKRLQDLRSCLSPKQHQSPALQSTDDEVVLVEGPVLPQSSRLFTLKIRCRADLVRLPVRMSEPLQNVVDHMANHLGVSPNRILLLFGESELSPTATPSTLKLGVADIIDCVVLASSSEATETSQELRLRVQGKEKHQMLEISLSPDSPLKVLMSHYEEAMGLSGHKLSFFFDGTKLSGKELPADLGLESGDLIEVWG
binding [7]: binds

B5: Flag-tagged NIP45 (full length) (protein, not shown: small tags and cut ends)
chain: MAEPLRGRGPRSRGGRGARRARGARGRCPRARQSPARLIPDTVLVDLVSDSDEEVLEVADPVEVPVARLPAPAKPEQDSDSDSEGAAEGPAGAPRTLVRRRRRRLLDPGEAPVVPVYSGKVQSSLNLIPDNSSLLKLCPSEPEDEADLTNSGSSPSEDDALPSGSPWRKKLRKKCEKEEKKMEEFPDQDISPLPQPSSRNKSRKHTEALQKLREVNKRLQDLRSCLSPKQHQSPALQSTDDEVVLVEGPVLPQSSRLFTLKIRCRADLVRLPVRMSEPLQNVVDHMANHLGVSPNRILLLFGESELSPTATPSTLKLGVADIIDCVVLASSSEATETSQELRLRVQGKEKHQMLEISLSPDSPLKVLMSHYEEAMGLSGHKLSFFFDGTKLSGKELPADLGLESGDLIEVWG
binding (HA-tagged PRMT1 (murine)): binds
